Reference: US20240148916A1, “BIVALENT FIBROBLAST ACTIVATION PROTEIN LIGANDS FOR TARGETED DELIVERY APPLICATIONS” (priority 2021, published 2024)
For some assays here: At least one structure is not confirmed: it was looked up by name or label, or the drawing left a doubt. Some entries share one result that the patent states for a list of compounds.

What was measured:
Format in all cases: binding
hCAIX = hCAIX (Homo sapiens, UniProt Q16790); assay: Gel filtration co-elution experiment on hCAIX; details: PD-10 column, hCAIX 2 μM; same without any protein
hFAP [1] = target: T1, hFAP (Homo sapiens, UniProt Q12884); assay: Gel filtration co-elution experiment on hFAP; details: PD-10 column, hFAP 2 μM
T1 sequence (Q12884 1-760): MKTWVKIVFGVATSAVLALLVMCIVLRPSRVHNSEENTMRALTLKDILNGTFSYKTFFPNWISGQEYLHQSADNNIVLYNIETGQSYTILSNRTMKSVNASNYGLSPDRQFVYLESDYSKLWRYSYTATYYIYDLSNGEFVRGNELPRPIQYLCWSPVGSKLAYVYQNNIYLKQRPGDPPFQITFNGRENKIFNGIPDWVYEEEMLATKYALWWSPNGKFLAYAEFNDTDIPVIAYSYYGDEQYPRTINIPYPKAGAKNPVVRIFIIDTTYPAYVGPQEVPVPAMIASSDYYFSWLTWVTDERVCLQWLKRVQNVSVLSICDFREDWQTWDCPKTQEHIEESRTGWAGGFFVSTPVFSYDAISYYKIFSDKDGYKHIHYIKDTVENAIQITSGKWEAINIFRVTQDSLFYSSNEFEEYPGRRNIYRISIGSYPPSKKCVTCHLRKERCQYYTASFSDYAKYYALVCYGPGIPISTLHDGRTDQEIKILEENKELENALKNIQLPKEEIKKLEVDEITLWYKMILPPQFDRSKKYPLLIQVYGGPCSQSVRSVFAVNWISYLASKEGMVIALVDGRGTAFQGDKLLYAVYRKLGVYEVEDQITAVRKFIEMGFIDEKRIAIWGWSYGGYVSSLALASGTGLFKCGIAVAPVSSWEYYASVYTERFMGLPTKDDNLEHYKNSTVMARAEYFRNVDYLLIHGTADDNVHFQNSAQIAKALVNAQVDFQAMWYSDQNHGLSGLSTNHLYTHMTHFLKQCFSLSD
Procedure: The final solution was loaded on the column and flushed with running buffer. Fractions of the flow-through (200 μL) were collected in test tubes and the radioactivity measured with a Packard Cobra γ-counter. […] The final solution was loaded on the column and flushed with running buffer. Fractions of the flow-through (200 μL) were collected in test tubes and the radioactivity measured with a Packard Cobra γ-counter.

hFAP [2] = target: T1, hFAP; assay: ELISA against immobilized hFAP; details: biotinylated hFAP immobilized on StreptaWell
Procedure: Recombinant human FAP (1 μM, 5 mL) was biotinylated with Biotin-LC-NHS (100 eq.) by incubation at room temperature under gentle agitation in 50 mM HEPES, 100 mM NaCl buffer (pH=7.4). After 2 hours biotinylated hFAP was purified via PD-10 column and dialyzed overnight in HEPES buffer. The following day a StreptaWell™ (transparent 96-well) was incubated with biotinylated hFAP (100 nM, 100 μL/well) for 1 hour at room temperature and washed with PBS (3×, 200 μL/well). The protein was blocked by adding 4% Milk in PBS (200 μL/well, 30 min at RT) and then washed with PBS (3×, 200 μL/well). Immobilized hFAP was incubated for 30 minutes in the dark with serial dilutions of ESV6-Asp-Lys-Asp-Cys-Fluorescein and Bi-ESV6-Asp-Lys-Asp-Cys-Fluorescein (17), then washed with PBS (3×, 200 μL/well). A solution of rabbit αFITC antibody (1 μg/mL, Bio-Rad 4510-7804) in 2% Milk-PBS was added to each well (100 μL/well) and incubated for additional 30 minutes in the dark. The resulting complex was washed with PBS (3×, 200 μL/well) and incubated for additional 30 minutes of protein A-HRP (1 μg/mL in 2% Milk-PBS, 100 μL/well). Each well was washed with PBS 0.1% Tween (3×, 200 μL/well) and with PBS (3×, 200 μL/well). The substrate (TMB—3,3′,5,5′-Tetramethylbenzidine) was added (100 μL/well) and developed in the dark for 2 minutes. […] The absorbance was measured at 450 nm (ref 620-650 nm) with a TECAN spark

Row | SMILES | Elution volume of the peak of radioactivity after incubation with irrelevant protein CAIX (hCAIX) | Elution volume after incubation with hFAP (hFAP [1]) [mL] | Kd (hFAP [2]) [nM]
1 | N#C[C@@H]1CC(F)(F)CN1C(=O)CNC(=O)c1ccnc2c(NC(=O)CCC(=O)NCCCC[C@H](NC(=O)CCC(=O)Nc3cccc4c(C(=O)NCC(=O)N5CC(F)(F)C[C@H]5C#N)ccnc34)C(=O)NCCNC(=O)CCC(C(=O)O)N3CCN(CC(=O)O)CCN(CC(=O)O)CCN(CC(=O)O)CC3)cccc12 (some centres unmarked) [^177Lu-Bi-ESV6-DOTAGA, metal not drawn] | more than 3000 μL | ≤ 2 | –
2 | N#C[C@@H]1CC(F)(F)CN1C(=O)CNC(=O)c1ccnc2c(NC(=O)CCC(=O)NCCNC(=O)CCC(C(=O)O)N3CCN(CC(=O)O)CCN(CC(=O)O)CCN(CC(=O)O)CC3)cccc12 (single isomer, unassigned) [^177Lu-ESV6-DOTAGA, metal not drawn, reference compound] | more than 3000 μL | ≤ 2 | –
3 | N#C[C@@H]1CC(F)(F)CN1C(=O)CNC(=O)c1ccnc2c(NC(=O)CCC(=O)NCCCC[C@H](NC(=O)CCC(=O)Nc3cccc4c(C(=O)NCC(=O)N5CC(F)(F)C[C@H]5C#N)ccnc34)C(=O)N[C@@H](CC(=O)O)C(=O)N[C@@H](CCCCN)C(=O)N[C@@H](CC(=O)O)C(=O)N[C@@H](CSC3CC(=O)N(c4ccc5c(c4)C(=O)OC54c5ccc(O)cc5Oc5cc(O)ccc54)C3=O)C(=O)O)cccc12 (stereo partly drawn) [Bi-ESV6-Asp-Lys-Asp-Cys-Fluorescein] | – | – | 8.6
